Assay results published in patent publication US20210071191A1.

Legend:
[1] = target: OsGIF1 BiFC fusion (OsGIF1 tagged with the C-terminus of YFP) (rice); assay: BiFC in tobacco leaf epidermal cells
[2] = target: OsGRF7 tagged with the N-terminus of YFP (rice); assay: BiFC in tobacco leaf epidermal cells
[3] = target: OsGRF5 tagged with the N-terminus of YFP (rice); assay: BiFC in tobacco leaf epidermal cells
[4] = target: OsGIF3 BiFC fusion (rice); assay: BiFC in tobacco leaf epidermal cells
[5] = target: OsGRF9 tagged with the N-terminus of YFP (rice); assay: BiFC in tobacco leaf epidermal cells
[6] = target: OsGRF2 tagged with the N-terminus of YFP (rice); assay: BiFC in tobacco leaf epidermal cells
[7] = target: OsGRF8 tagged with the N-terminus of YFP (rice); assay: BiFC in tobacco leaf epidermal cells
[8] = target: OsGRF6 tagged with the N-terminus of YFP (rice); assay: BiFC in tobacco leaf epidermal cells
[9] = target: OsGRF1 tagged with the N-terminus of YFP (rice); assay: BiFC in tobacco leaf epidermal cells
[10] = target: OsGRF12 tagged with the N-terminus of YFP (rice); assay: BiFC in tobacco leaf epidermal cells
[11] = target: OsGRF11 tagged with the N-terminus of YFP (rice); assay: BiFC in tobacco leaf epidermal cells
[12] = target: OsGRF10 tagged with the N-terminus of YFP (rice); assay: BiFC in tobacco leaf epidermal cells
[13] = target: OsGRF3 tagged with the N-terminus of YFP (rice); assay: BiFC in tobacco leaf epidermal cells
[14] = target: OsGIF2 BiFC fusion (rice); assay: BiFC in tobacco leaf epidermal cells
HA-tagged OsGIF1 (rice) = assay: Co-IP from A. thaliana protoplasts, anti-DDDDK-tag beads, anti-Flag and anti-HA immunoblot

Row | binding [1] | binding [2] | binding [3] | binding [4] | binding [5] | binding [6] | binding [7] | binding [8] | binding [9] | binding [10] | binding [11] | binding [12] | binding [13] | binding [14] | binding (HA-tagged OsGIF1 (rice)) | Binder
1 | binds |  |  |  |  |  |  |  |  |  |  |  |  |  |  | nYFP-OsGRF4 (protein, not shown: large carriers) MTMPYASLSPAVADHRSSPAAATASLLPFCRSTPLSAGGGVVAMGEDAPMTARWPPAAAARLPPFTAAQYEELEQQALIYKYLVAGVPVPPDLVLPIRRGLDSLAARFYNHPALGYGPYFGKKLDPEPGRCRRTDGKKWRCSKEAAPDSKYCERHMHRGRNRSRKPVETQLVAQSQPPSSVVGSAAAPLAAASNGSSFQNHSLYPAIAGSNGGGGGRNMPSSFGSALGSQLHMDNAAPYAAVGGGTGKDLRYTAYGTRSLADEQSQLITEAINTSIENPWRLLPSQNSPFPLSSYSQLWALSDLGQNTPSSLSKVQRQPLSFFGNDYAAVDSVKQENQTLRPFFDEWPKGRDSWSDLADENANLSSFSGTQLSISIPMASSDFSAASSRSTNGD
2 | binds | binds | binds | binds | binds | binds | binds | binds | binds | binds | binds | binds | binds | binds |  | cYFP-SLR1 (protein, rice, UniProt Q7G7J6 1-625, looked up, not shown: large carriers) MKREYQEAGGSSGGGSSADMGSCKDKVMAGAAGEEEDVDELLAALGYKVRSSDMADVAQKLEQLEMAMGMGGVSAPGAADDGFVSHLATDTVHYNPSDLSSWVESMLSELNAPLPPIPPAPPAARHASTSSTVTGGGGSGFFELPAAADSSSSTYALRPISLPVVATADPSAADSARDTKRMRTGGGSTSSSSSSSSSLGGGASRGSVVEAAPPATQGAAAANAPAVPVVVVDTQEAGIRLVHALLACAEAVQQENFAAAEALVKQIPTLAASQGGAMRKVAAYFGEALARRVYRFRPADSTLLDAAFADLLHAHFYESCPYLKFAHFTANQAILEAFAGCHRVHVVDFGIKQGMQWPALLQALALRPGGPPSFRLTGVGPPQPDETDALQQVGWKLAQFAHTIRVDFQYRGLVAATLADLEPFMLQPEGEADANEEPEVIAVNSVFELHRLLAQPGALEKVLGTVHAVRPRIVTVVEQEANHNSGSFLDRFTESLHYYSTMFDSLEGGSSGQAELSPPAAGGGGGTDQVMSEVYLGRQICNVVACEGAERTERHETLGQWRNRLGRAGFEPVHLGSNAYKQASTLLALFAGGDGYRVEEKEGCLTLGWHTRPLIATSAWRVAAA
3 |  |  |  |  |  |  |  |  |  |  |  |  |  |  | binds | Flag-tagged SLR1 (protein, rice, UniProt Q7G7J6 1-625, looked up, not shown: small tags and cut ends) MKREYQEAGGSSGGGSSADMGSCKDKVMAGAAGEEEDVDELLAALGYKVRSSDMADVAQKLEQLEMAMGMGGVSAPGAADDGFVSHLATDTVHYNPSDLSSWVESMLSELNAPLPPIPPAPPAARHASTSSTVTGGGGSGFFELPAAADSSSSTYALRPISLPVVATADPSAADSARDTKRMRTGGGSTSSSSSSSSSLGGGASRGSVVEAAPPATQGAAAANAPAVPVVVVDTQEAGIRLVHALLACAEAVQQENFAAAEALVKQIPTLAASQGGAMRKVAAYFGEALARRVYRFRPADSTLLDAAFADLLHAHFYESCPYLKFAHFTANQAILEAFAGCHRVHVVDFGIKQGMQWPALLQALALRPGGPPSFRLTGVGPPQPDETDALQQVGWKLAQFAHTIRVDFQYRGLVAATLADLEPFMLQPEGEADANEEPEVIAVNSVFELHRLLAQPGALEKVLGTVHAVRPRIVTVVEQEANHNSGSFLDRFTESLHYYSTMFDSLEGGSSGQAELSPPAAGGGGGTDQVMSEVYLGRQICNVVACEGAERTERHETLGQWRNRLGRAGFEPVHLGSNAYKQASTLLALFAGGDGYRVEEKEGCLTLGWHTRPLIATSAWRVAAA

Results are given in words; binding and its absence hold for the method and conditions named. Binding can be weak; no strength is given. Where a sequence is shown, tags or fusion partners need not be part of it. For some of these results: In cells and extracts the contact can be indirect.
